Reference: patent EP3345917A1, “ANTIPROTOZOAL COMPOUNDS” (Bacoba AG, priority 2017, dated 2018)
Part of at least one peptide drawing is inferred or uncertain, most often the ends. Non-standard residues stand in square brackets, D forms with d. Residues, ends and D or L forms follow the SMILES beside them. *: point of attachment. CH3O(CH2CH2O)11CH2CH2CO = COCCOCCOCCOCCOCCOCCOCCOCCOCCOCCOCCOCCC(=O)*; Hexenoyl(2E,4S-Me) = CC[C@H](C)/C=C/C(=O)*; Leu(3R-OH) = CC(C)[C@@H](O)[C@H](N)C(=O)O; NH((S)CH(Me)CH2NMe2) = C[C@@H](CN(C)C)N*; Gly(octyl) = CCCCCCCC[C@H](N)C(=O)O; X3 = O=C(c1coc(-c2ccccc2)n1)*; Morpholide = C1CN(*)CCO1; Aib = CC(C)(N)C(=O)O; βAla = NCCC(=O)O

How the values were obtained:
Format in all cases: cell-based
Plasmodium falciparum = experiment: 3H-hypoxanthine incorporation assay against Plasmodium falciparum; conditions: In vitro inhibition, read-out: P.falc NF5
Description: (§1) Tests were done in triplicate.
IC50 values were calculated by linear interpolation.

[1] = test system: Trypanosoma brucei rhodesiense (STIB 900 strain); experiment: Alamar Blue assay against Trypanosoma brucei rhodesiense grown in axenic medium; conditions: In vitro inhibition, read-out: T.b.rhod.
Description: as §1
Trypanosoma brucei rhodesiense (STIB 900) were grown in axenic medium as described by Baltz et al. (1985) The samples were tested using the Alamar Blue assay protocol (Baltz T et al. EMBO J 1985; 4:1273-1277) to determine the 50% inhibitory concentration (IC50). […] Melarsoprol (Arsobal®, Sanofi-Aventis, Switzerland) was used as a reference drug (IC50= 0.03 ± 0.01 µM). Its purity was over 95 %, as was certified by the supplier. The IC50 values were calculated by using Softmax Pro software (Molecular Devices Cooperation, Sunnyvale, CA).

[2] = test system: Axenically grown Leishmania donovani amastigotes (strain MHOM/ET/67/L82); experiment: Axenic Leishmania donovani amastigote resazurin assay; conditions: In vitro inhibition, read-out: L.don. ax
Description: as §1
Axenically grown Leishmania donovani amastigotes (strain MHOM/ET/67/L82) were grown and tests were done as previously described using the resazurin assay (Räz B et al. Acta Tropica 1997, 68:139-147). The plates were developed for 2-4 hours and read on a Spectramax Gemini XS micro plate fluorometer (Molecular Devices Cooperation) using an excitation wavelength of 536 nm and emission wavelength of 588 nm. Fluorescence development was measured and expressed as percentage of the negative control. […] Data were transferred to the graphic programme Softmax Pro (Molecular Devices), with which IC50 values were calculated.

[3] = test system: intracellular Leishmania donovani (L.don. InMac); experiment: Intracellular Leishmania donovani assay (L.don. InMac); conditions: In vitro inhibition
Excerpt: as §1

## CCCCCCCC[C@H](NC(=O)[C@@H]1CCCN1C(=O)/C=C/[C@@H](C)CC)C(=O)N[C@H](C(=O)NC(C)(C)C(=O)N[C@@H](CC(C)C)C(=O)N[C@@H](CC(C)C)C(=O)NC(C)(C)C(=O)NC(C)(C)C(=O)NCCC(=O)N1CCOCC1)[C@H](O)C(C)C [Compound 5572] ({Hexenoyl(2E,4S-Me)}-P[Gly(octyl)][Leu(3R-OH)][Aib]LL[Aib][Aib][βAla]-Morpholide)
Plasmodium falciparum
  IC50: 157 nM
[1]
  IC50: 302 nM
[2]
  IC50: 157 nM

## CCCCCCCC[C@H](NC(=O)[C@@H]1CCCN1C(=O)c1coc(-c2ccccc2)n1)C(=O)N[C@@H](CC(C)C)C(=O)NC(C)(C)C(=O)N[C@@H](CC(C)C)C(=O)N[C@@H](CC(C)C)C(=O)NC(C)(C)C(=O)NC(C)(C)C(=O)NCCC(=O)N[C@@H](C)CN(C)C [Compound 5906, (2S)-N-[(1S)-1-[(1-{[(1S)-1-{[(1S)-1-{[1-({1-[(2-{[(2S)-1-(dimethylamino)propan-2-yl]carbamoyl}ethyl)carbamoyl]-1-methylethyl}carbamoyl)-1-methylethyl]carbamoyl}-3-methylbutyl]carbamoyl}-3-methylbutyl]carbamoyl}-1-methylethyl)carbamoyl]-3-methylbutyl]-2-{[(2S)-1-(2-phenyl-1,3-oxazole-4-carbonyl)pyrrolidin-2-yl]formamido}decanamide] (X3-P[Gly(octyl)]L[Aib]LL[Aib][Aib][βAla]-{NH((S)CH(Me)CH2NMe2)})
Plasmodium falciparum
  IC50: 32800 nM
[1]
  IC50: 0.5 nM
[3]
  IC50: 42400 nM
[2]
  IC50: 26700 nM

## CCCCCCCC[C@H](NC(=O)[C@@H]1CCCN1C(=O)CCOCCOCCOCCOCCOCCOCCOCCOCCOCCOCCOCCOC)C(=O)N[C@@H](CC(C)C)C(=O)NC(C)(C)C(=O)N[C@@H](CC(C)C)C(=O)N[C@@H](CC(C)C)C(=O)NC(C)(C)C(=O)NC(C)(C)C(=O)NCCC(=O)N[C@@H](C)CN(C)C [Compound 6067, (2S)-N-[(1S)-1-[(1-{[(1S)-1-{[(1S)-1-{[1-({1-[(2-{[(2S)-1-(dimethylamino)propan-2-yl]carbamoyl}ethyl)carbamoyl]-1-methylethyl}carbamoyl)-1-methylethyl]carbamoyl}-3-methylbutyl]carbamoyl}-3-methylbutyl]carbamoyl}-1-methylethyl)carbamoyl]-3-methylbutyl]-2-{[(2S)-1-(2,5,8,11,14,17,20,23,26,29,32,35-dodecaoxaoctatriacontanoyl)pyrrolidin-2-yl]formamido}decanamide] ({CH3O(CH2CH2O)11CH2CH2CO}-P[Gly(octyl)]L[Aib]LL[Aib][Aib][βAla]-{NH((S)CH(Me)CH2NMe2)})
Plasmodium falciparum
  IC50: 100 nM
[1]
  IC50: 42600 nM
[2]
  IC50: 349 nM
